# According to patent US20250134809A1, “A PHYTOACTIVE ENCAPSULATED FORMULATION FOR NEURODEGENERATIVE DISEASES” (Gidaa Life Sciences Pvt. Ltd., priority 2022, published 2025):
# “Also recorded” adds a separate entry of the source.
# Tests used:
# TNF-α, IL-6, NFKB = test: Inflammatory markers in brain tissue of AlCl3 rats; assay type: in vivo, rat; settings: G3 (Donepezil orally)
# [1] = tested on: rat brain hippocampus and cerebral cortex; test: Brain histopathology (Cresyl violet staining) of AlCl3 rats; assay type: in vivo; settings: G3 (Donepezil orally)
# [2] = tested on: Beta Amyloid, Gamma secretase, Beta secretase, APP; test: Neuronal markers in brain tissue of AlCl3 rats; assay type: in vivo, rat; settings: G3 (Donepezil orally)
# LPO, SOD, GSH, GPx = test: Oxidative stress / antioxidant markers in brain tissue of AlCl3 rats; assay type: in vivo, rat; settings: G3 (Donepezil orally); for oxidative stress and antioxidant markers when compared to G2: p<0.05 & 0.01
smiles,measurement,setting,value
COc1cc2c(cc1OC)C(=O)C(CC1CCN(Cc3ccccc3)CC1)C2 (centres unmarked) [Donepezil],"IL-6 (inflammatory marker, mean values)","TNF-α, IL-6, NFKB; cortex tissue",1692.33
same,"NFkB (inflammatory marker, mean values)","TNF-α, IL-6, NFKB; cortex tissue",1.22
same,"TNFα (inflammatory marker, mean values)","TNF-α, IL-6, NFKB; cortex tissue",19.55
same,inflammatory markers levels when compared to G2,"TNF-α, IL-6, NFKB; hippocampus and cortex, p<0.05 and p<0.01",statistically significantly decreased
same,"IL-6 (inflammatory marker, mean values)","TNF-α, IL-6, NFKB; hippocampus tissue",1676.83
same,"NFkB (inflammatory marker, mean values)","TNF-α, IL-6, NFKB; hippocampus tissue",1.06
same,"TNFα (inflammatory marker, mean values)","TNF-α, IL-6, NFKB; hippocampus tissue",24.06
same,Glial nodule,[1],not observed
same,"NFTs (minimal to mild severity) in cerebral cortex, animals affected",[1],06/06
same,"NFTs (minimal to mild severity) in hippocampus, animals affected",[1],05/06
same,Neuronal degeneration,[1],not observed
same,"mononuclear cell infiltration, animals affected",[1],not observed
same,"Gliosis, animals affected",[1]; minimal (01/06) to mild (01/06) severity,02 out of 06
same,neuronal markers levels compared to G2,[2]; both brain regions,statistically significantly reduced and it is near to normal; also recorded: brought down
same,"B APP (neuronal marker, mean values)",[2]; cortex,6.54
same,"B Amyloid (neuronal marker, mean values)",[2]; cortex,328.72
same,"Secretase (neuronal marker, mean values)",[2]; cortex,611.78
same,"γ Secretase (neuronal marker, mean values)",[2]; cortex,869.29
same,"APP (neuronal marker, mean values)",[2]; hippocampus,471.17
same,"B Amyloid (neuronal marker, mean values)",[2]; hippocampus,257.9
same,"B Secretase (neuronal marker, mean values)",[2]; hippocampus,7.57
same,"γ Secretase (neuronal marker, mean values)",[2]; hippocampus,1110.57
same,"GPX (oxidative marker, mean values)","LPO, SOD, GSH, GPx; cortex tissue",7.42
same,"GSH (oxidative marker, mean values)","LPO, SOD, GSH, GPx; cortex tissue",26.33
same,"LPO (oxidative marker, mean values)","LPO, SOD, GSH, GPx; cortex tissue",1.72
same,"SOD (oxidative marker, mean values)","LPO, SOD, GSH, GPx; cortex tissue",0.46
same,oxidative stress and antioxidant markers when compared to G2,"LPO, SOD, GSH, GPx; cortex",reduced oxidative stress and significantly increased antioxidant markers
same,"GPX (oxidative marker, mean values)","LPO, SOD, GSH, GPx; hippocampal tissue",9.43
same,"GSH (oxidative marker, mean values)","LPO, SOD, GSH, GPx; hippocampal tissue",8.27
same,"LPO (oxidative marker, mean values)","LPO, SOD, GSH, GPx; hippocampal tissue",0.81
same,"SOD (oxidative marker, mean values)","LPO, SOD, GSH, GPx; hippocampal tissue",0.26
same,oxidative stress and antioxidant markers when compared to G2,"LPO, SOD, GSH, GPx; hippocampus",altered significantly
